Counter-ions that a name gives are not always drawn. The list shows a part of the results. Most values come without repeats; read them as rough.
Test system: Drosophila melanogaster DPAGT1 (Alg7) RNAi eye model
Experiment: eye size Z-score vs DMSO-treated DPAGT1 model flies; higher = larger eye (suppression of DPAGT1 phenotype)
Settings: 5 uM

| SMILES | eye size Z-score |
| --- | --- |
| Nc1ccc(S(=O)(=O)Nc2ncccn2)cc1 [Sulfadiazine] | 0.08 |
| CO[C@@]1(NC(=O)C(C(=O)O)c2ccc(O)cc2)C(=O)N2C(C(=O)O)=C(CSc3nnnn3C)CO[C@@H]21 (stereo partly specified) [Moxalactam disodium salt] | -0.11 |
| C#C[C@]1(O)CC[C@H]2[C@@H]3CCC4=CC(=O)CC[C@@H]4[C@H]3CC[C@@]21C [Norethindrone] | 0.53 |
| O=C(O)CNC(=O)c1ccccc1 [Hippuric acid] | -0.19 |
| CC(=O)O[C@]1(C(C)=O)CC[C@H]2[C@@H]3C=C(C)C4=CC(=O)CC[C@@H]4[C@H]3CC[C@@]21C [Nomegestrol acetate] | 0.15 |
| NS(=O)(=O)c1cc2c(cc1Cl)N=C(CSCc1ccccc1)NS2(=O)=O [Benzthiazide] | -0.04 |
| O=C1C(CC[S+]([O-])c2ccccc2)C(=O)N(c2ccccc2)N1c1ccccc1 (stereo unspecified) [Sulfinpyrazone] | -0.55 |
| CC(=O)Oc1cc(C(F)(F)F)ccc1C(=O)O [Triflusal] | 1.74 |
| N=c1ccn2c(n1)O[C@H]1[C@H](O)[C@@H](CO)O[C@H]12 [Ancitabine hydrochloride] | 1.16 |
| CC(=O)Oc1c(C)cccc1C(=O)O [Cresopirine] | 0.36 |
| C[C@]12C=CC(=O)C=C1CC[C@@H]1[C@@H]2[C@@H](O)C[C@@]2(C)[C@H]1CC[C@]2(O)C(=O)CO [Prednisolone] | -0.08 |
| O=c1[nH]cc(F)c(=O)[nH]1 [5-fluorouracil] | 0.48 |
| CO/N=C(\C(=O)N[C@@H]1C(=O)N2C(C(=O)[O-])=C(C[n+]3ccn4ncccc43)CS[C@H]12)c1nsc(N)n1 [Cefozopran hydrochloride] | -0.43 |
| CS(=O)(=O)c1ccc([C@@H](O)[C@@H](CO)NC(=O)C(Cl)Cl)cc1 [Thiamphenicol] | 1.15 |
| CC(C)Cc1ccc([C@H](C)C(=O)O)cc1 [(S,+) Ibuprofen] | -0.64 |
| C[C@@H](c1ncncc1F)[C@](O)(Cn1cncn1)c1ccc(F)cc1F [Voriconazole] | -0.11 |
| O=C(O)Cc1ccccc1Nc1c(Cl)cccc1Cl [Diclofenac sodium] | 0.22 |
| CN1CCN(CCCN2c3ccccc3Sc3ccc(S(=O)(=O)N(C)C)cc32)CC1 [Thioproperazine dimesylate] | -0.06 |
| C#C[C@]1(O)CC[C@H]2[C@@H]3[C@H](C)CC4=C(CCC(=O)C4)[C@H]3CC[C@@]21C [Tibolone] | 0.57 |
| O=C(O)COc1nn(Cc2ccccc2)c2ccccc12 [Bendazac] | -0.71 |
| CC(=O)OCC(=O)[C@@]1(O)CC[C@H]2[C@@H]3CCC4=CC(=O)C=C[C@]4(C)[C@@]3(F)[C@@H](O)C[C@@]21C [Isoflupredone acetate] | -0.01 |

In a second layout: entries from further up
SMILES | eye size Z-score
O=C1C(CC[S+]([O-])c2ccccc2)C(=O)N(c2ccccc2)N1c1ccccc1 (stereo unspecified) [Sulfinpyrazone] | -0.55
CC(=O)Oc1c(C)cccc1C(=O)O [Cresopirine] | 0.36
